Results are given in words; binding and its absence hold for the method and conditions named.
Target: OTULINcat (aa 80-352) (human) (UniProt Q96BN8)
Assay: condition: 150-450 µM PDZ variant in the syringe, 20-30 µM OTULINcat variant in the cell; ITC; PDZ variant (150-450 µM) in the syringe, OTULINcat variant (20-30 µM) in the cell; 25 °C; 20 mM HEPES pH 7.4, 200 mM NaCl, 2 mM TCEP; single-site binding model; both purified

B1: MUPP1 PDZ8 (1346-1436) (domain or fragment, UniProt O75970 1346-1436)
chain: GELHMIELEKGHSGLGLSLAGNKDRSRMSVFIVGIDPNGAAGKDGRLQIADELLEINGQILYGRSHQNASSIIKCAPSKVKIIFIRNKDAV
  binding: no binding

From publication PMC6754446
